Some of these results come from one statement about several compounds together. Strand notation (5' to 3'): a small letter for the sugar, then the base; units joined by * are phosphorothioate-linked, units joined directly phosphodiester-linked; [ ] holds rarer units or linkages, { } end groups; capitals alone tell only the bases. d = 2'-deoxy (DNA); m = 2'-O-methyl; r = 2'-OH (RNA)
Experiment: Long-term stability in rat CSF
Type: in vitro ADME
Conditions: 5 uM, 37° C., 10 to 14 days

Substance	loss of antisense or sense strands
AL-DP-6000: dsRNA targeting HD with 2'-O-methyl modifications; sense SEQ ID NO: 798, antisense SEQ ID NO: 799 (sense UCCUGCUUUAGUCGAGAACTT; antisense GUUCUCGACUAAAGCAGGATT; 2'-O-methyl modified, pattern not given here)	≤ 30%
AL-DP-7100: further stabilized dsRNA with one additional 2'-OMe group, parent is AL-DP-6020; sense SEQ ID NO: 876, antisense SEQ ID NO: 877 (sense mCrAmUmUrGrGrArAmUmUmCmCmUrArArArAmUmCdT*dT; antisense rGrArUrUrUmUrArGrGrArArUrUrCmCrArAmUrGdT*dT)	≤ 30%
AL-DP-6001: dsRNA targeting HD with 2'-O-methyl modifications; sense SEQ ID NO: 800, antisense SEQ ID NO: 801 (sense UUAGUCGAGAACCAAUGAUTT; antisense AUCAUUGGUUCUCGACUAATT; 2'-O-methyl modified, pattern not given here)	≤ 30%
AL-DP-5997: dsRNA targeting HD with 2'-O-methyl modifications; sense SEQ ID NO: 792, antisense SEQ ID NO: 793 (sense GUCACAAAGAACCGUGCAGTT; antisense CUGCACGGUUCUUUGUGACTT; 2'-O-methyl modified, pattern not given here)	≤ 30%
